# Measurements published in the supplement of paper PMC12067093, “Discovery and optimisation of a covalent ligand for TRIM25 and its application to targeted protein ubiquitination” (Chemical Science, 2025).
# The chains behind the UniProt entries cited, without tags or fusion partners. Where a name states a change or a piece, a line headed by the entry shows the natural chain unless it says otherwise.
# UniProt O94973, whole entry, looked up: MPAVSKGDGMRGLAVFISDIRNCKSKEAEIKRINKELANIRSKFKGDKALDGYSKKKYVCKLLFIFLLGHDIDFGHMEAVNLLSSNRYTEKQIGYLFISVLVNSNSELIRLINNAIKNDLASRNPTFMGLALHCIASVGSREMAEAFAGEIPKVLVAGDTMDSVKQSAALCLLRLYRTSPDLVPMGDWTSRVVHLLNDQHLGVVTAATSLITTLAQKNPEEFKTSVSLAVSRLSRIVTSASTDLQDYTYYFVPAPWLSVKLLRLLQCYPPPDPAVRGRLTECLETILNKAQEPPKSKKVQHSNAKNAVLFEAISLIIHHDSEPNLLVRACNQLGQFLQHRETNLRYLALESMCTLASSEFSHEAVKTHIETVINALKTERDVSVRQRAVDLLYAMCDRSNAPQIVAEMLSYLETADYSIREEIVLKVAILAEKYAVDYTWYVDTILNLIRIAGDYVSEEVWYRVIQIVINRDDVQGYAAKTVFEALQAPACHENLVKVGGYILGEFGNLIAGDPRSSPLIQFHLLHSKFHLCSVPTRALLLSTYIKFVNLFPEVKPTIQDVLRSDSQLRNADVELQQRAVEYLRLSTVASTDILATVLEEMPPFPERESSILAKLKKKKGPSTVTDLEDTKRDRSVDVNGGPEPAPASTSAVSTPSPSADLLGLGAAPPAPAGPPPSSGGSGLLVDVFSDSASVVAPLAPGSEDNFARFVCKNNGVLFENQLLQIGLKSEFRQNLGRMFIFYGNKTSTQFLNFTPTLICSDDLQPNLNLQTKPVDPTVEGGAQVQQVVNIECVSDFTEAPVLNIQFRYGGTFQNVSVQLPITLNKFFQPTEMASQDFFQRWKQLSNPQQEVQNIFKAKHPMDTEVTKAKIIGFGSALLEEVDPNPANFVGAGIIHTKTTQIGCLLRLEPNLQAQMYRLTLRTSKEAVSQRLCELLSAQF
# UniProt Q9Y2T2: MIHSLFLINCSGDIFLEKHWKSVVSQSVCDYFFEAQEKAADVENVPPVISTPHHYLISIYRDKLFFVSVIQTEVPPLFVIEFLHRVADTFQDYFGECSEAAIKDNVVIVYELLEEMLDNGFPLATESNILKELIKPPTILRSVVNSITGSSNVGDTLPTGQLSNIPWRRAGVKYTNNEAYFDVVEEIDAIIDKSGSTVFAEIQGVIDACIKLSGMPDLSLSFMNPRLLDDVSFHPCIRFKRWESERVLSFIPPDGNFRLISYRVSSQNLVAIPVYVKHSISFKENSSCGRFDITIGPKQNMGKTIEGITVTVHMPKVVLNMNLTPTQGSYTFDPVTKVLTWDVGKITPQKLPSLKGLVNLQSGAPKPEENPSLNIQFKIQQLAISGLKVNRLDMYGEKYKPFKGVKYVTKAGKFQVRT
# UniProt P04083: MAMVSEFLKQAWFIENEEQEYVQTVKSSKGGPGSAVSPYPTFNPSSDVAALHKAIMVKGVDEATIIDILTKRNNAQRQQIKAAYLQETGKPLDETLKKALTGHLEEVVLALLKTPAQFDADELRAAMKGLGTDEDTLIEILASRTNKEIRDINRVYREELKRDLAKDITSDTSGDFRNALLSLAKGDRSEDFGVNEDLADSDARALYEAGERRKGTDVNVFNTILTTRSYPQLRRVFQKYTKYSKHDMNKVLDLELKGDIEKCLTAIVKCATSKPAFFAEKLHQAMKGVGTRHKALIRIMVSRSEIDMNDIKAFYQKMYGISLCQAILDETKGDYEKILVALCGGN
# UniProt P39687: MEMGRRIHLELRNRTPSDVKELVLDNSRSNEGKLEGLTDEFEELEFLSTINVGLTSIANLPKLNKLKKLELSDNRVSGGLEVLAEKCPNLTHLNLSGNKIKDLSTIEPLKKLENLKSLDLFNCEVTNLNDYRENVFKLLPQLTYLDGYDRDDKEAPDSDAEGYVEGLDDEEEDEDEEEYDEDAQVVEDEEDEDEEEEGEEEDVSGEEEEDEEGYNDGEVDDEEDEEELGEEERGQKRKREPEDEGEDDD
# UniProt Q4KMQ2: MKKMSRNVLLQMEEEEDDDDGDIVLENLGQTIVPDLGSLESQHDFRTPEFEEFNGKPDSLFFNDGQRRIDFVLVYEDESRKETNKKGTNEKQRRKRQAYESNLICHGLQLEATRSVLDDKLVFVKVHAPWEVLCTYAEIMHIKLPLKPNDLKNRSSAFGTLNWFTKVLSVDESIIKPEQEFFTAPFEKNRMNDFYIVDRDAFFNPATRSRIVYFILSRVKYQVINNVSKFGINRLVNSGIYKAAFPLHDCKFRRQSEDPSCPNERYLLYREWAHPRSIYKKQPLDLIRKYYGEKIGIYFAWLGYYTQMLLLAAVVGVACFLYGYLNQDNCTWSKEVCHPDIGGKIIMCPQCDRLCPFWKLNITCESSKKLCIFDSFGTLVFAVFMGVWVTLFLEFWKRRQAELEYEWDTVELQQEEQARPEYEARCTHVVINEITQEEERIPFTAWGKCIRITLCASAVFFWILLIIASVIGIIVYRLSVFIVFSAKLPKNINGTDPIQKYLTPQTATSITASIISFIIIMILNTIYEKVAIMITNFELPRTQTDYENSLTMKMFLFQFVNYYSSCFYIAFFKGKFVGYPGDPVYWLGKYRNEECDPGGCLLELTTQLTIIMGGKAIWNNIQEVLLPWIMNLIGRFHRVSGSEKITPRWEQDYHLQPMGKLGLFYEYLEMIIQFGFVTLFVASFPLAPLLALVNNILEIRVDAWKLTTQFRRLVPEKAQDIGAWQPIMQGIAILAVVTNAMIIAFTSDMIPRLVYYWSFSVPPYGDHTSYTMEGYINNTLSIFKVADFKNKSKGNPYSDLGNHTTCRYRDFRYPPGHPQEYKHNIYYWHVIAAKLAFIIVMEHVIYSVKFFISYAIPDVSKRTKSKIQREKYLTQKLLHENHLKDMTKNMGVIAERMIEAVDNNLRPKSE
# UniProt O15084: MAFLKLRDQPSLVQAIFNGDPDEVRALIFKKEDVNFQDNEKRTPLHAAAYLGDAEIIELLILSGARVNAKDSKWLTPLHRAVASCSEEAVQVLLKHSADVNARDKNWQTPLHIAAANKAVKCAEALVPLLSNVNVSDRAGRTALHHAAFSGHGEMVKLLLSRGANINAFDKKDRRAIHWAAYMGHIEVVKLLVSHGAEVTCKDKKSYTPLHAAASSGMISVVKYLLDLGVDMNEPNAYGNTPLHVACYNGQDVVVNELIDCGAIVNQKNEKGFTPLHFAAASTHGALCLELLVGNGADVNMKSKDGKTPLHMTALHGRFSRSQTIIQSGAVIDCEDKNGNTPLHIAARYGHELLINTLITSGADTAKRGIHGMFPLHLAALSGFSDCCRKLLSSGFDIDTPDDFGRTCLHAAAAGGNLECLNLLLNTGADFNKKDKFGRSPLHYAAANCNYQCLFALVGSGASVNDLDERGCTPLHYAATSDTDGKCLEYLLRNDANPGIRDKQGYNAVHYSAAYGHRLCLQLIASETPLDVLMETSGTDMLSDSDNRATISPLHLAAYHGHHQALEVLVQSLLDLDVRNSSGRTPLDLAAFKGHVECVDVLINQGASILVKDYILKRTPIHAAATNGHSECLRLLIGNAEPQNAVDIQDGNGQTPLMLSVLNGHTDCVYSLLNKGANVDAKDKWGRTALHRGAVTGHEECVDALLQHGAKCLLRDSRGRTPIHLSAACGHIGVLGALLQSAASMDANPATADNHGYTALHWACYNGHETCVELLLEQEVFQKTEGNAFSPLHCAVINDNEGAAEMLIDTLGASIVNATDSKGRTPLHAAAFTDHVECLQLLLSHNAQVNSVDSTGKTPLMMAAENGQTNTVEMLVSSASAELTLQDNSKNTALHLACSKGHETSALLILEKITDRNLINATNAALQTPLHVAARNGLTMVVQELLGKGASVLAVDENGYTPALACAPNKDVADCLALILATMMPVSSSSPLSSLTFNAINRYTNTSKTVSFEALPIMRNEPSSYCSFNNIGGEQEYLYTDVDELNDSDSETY
# UniProt P28039: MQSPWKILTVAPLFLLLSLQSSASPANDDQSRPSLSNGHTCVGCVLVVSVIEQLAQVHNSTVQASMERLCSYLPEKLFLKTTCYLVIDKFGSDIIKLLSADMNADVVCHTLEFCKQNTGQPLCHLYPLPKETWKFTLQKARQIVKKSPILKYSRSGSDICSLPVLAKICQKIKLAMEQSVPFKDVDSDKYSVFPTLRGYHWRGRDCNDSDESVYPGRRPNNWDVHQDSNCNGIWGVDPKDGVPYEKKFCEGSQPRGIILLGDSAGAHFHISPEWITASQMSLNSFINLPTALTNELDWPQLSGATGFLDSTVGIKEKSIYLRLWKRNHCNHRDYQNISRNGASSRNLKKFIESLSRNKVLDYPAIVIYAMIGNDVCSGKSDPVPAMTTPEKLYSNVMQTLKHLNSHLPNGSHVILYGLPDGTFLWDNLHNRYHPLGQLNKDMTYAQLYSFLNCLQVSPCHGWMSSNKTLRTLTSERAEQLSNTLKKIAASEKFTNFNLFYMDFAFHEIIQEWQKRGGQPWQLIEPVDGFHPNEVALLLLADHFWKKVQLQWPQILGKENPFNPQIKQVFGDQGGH
# UniProt Q9NQW6: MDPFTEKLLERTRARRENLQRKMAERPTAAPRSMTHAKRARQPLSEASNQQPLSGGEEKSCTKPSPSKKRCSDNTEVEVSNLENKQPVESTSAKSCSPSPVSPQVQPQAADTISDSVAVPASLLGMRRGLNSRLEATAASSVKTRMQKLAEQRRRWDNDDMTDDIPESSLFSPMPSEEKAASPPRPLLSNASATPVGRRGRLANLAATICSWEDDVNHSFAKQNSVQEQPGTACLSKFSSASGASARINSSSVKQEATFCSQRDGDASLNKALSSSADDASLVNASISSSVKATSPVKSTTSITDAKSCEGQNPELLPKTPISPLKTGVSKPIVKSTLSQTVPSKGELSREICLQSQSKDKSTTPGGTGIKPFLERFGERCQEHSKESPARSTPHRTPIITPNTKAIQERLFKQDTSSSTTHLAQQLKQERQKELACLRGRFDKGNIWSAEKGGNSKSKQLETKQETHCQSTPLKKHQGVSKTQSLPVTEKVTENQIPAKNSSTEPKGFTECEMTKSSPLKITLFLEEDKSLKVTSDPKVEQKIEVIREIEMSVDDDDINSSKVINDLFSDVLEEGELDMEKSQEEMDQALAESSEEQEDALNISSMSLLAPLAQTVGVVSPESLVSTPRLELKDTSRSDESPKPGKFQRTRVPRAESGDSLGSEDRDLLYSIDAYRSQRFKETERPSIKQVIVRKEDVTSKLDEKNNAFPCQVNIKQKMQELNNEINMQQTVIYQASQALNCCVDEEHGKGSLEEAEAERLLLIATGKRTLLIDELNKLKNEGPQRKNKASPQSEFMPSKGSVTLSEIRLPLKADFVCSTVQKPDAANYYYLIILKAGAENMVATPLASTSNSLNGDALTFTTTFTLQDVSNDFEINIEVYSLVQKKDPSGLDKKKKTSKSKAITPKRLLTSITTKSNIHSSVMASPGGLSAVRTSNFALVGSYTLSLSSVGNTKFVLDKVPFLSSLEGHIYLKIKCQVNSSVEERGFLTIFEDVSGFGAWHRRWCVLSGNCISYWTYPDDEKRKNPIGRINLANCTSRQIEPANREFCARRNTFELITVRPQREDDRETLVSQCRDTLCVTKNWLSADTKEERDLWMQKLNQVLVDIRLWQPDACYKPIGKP
# UniProt O75843: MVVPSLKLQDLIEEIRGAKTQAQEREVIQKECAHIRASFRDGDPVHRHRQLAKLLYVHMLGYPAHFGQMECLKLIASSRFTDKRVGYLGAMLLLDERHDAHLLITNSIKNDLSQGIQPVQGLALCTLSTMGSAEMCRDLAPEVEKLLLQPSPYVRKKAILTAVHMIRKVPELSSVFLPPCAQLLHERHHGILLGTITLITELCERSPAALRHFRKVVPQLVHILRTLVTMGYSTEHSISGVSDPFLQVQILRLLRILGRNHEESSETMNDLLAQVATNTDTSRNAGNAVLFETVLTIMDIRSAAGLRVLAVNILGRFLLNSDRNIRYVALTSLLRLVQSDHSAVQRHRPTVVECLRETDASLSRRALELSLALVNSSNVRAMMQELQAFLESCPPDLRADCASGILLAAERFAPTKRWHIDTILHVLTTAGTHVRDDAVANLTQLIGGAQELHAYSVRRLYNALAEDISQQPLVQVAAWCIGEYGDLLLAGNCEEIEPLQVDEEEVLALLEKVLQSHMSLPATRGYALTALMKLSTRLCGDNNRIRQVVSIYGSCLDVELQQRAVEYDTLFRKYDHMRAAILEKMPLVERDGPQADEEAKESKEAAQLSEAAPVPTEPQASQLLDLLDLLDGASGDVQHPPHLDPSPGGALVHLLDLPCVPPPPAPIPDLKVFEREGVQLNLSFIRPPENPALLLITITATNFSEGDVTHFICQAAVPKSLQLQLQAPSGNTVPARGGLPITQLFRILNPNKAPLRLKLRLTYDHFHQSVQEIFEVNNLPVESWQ
# The other results are listed elsewhere or left out.
# Compound: CC1Cc2ccccc2N1C(=O)C1CCCN(C1)C(=O)CCl (mixture of isomers) [TRIM25 ligand 11 (diastereomer mixture)]
# Assay: probe-labelled cysteine peptide fold change vs DMSO (competition) (log2 fold change); higher = less target engagement (more negative = stronger competition)
# Conditions: THP-1, incubation time: 4 h
# 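Note: competitive chemoproteomic profiling in live THP-1 cells with an iodoacetamide desthiobiotin (IA-DTB) probe, comparing probe-labelled peptide intensities in compound-treated cells against DMSO-treated controls.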
Target,probe-labelled cysteine peptide fold change (10 µM),probe-labelled cysteine peptide fold change (50 µM)
AP2A2_O94973_903_TTQIGCLLR (UniProt O94973),-0.0291,0.025
AP2A1_O95782_970_HLCELLAQQF (UniProt O95782),0.106,0.0112
AP3M1_Q9Y2T2_288_ENSSCGR (UniProt Q9Y2T2),0.544,0.494
ANXA1_P04083_263_CLTAIVK (UniProt P04083),-0.0305,-0.0899
ANKRD16_Q6P6B7_322_SALHLACAGQHLACAK (UniProt Q6P6B7),-0.0134,0.16
AP2A2_O94973_282_LTECLETILNK (UniProt O94973),-0.158,-0.0625
APEH_P13798_368_QLGENFSGIYCSLLPLGCWSADSQR (UniProt P13798),-0.459,-0.216
ANKRD44_Q8N8A2_834_FIGNPFTPLHCAIINDHGNCASLLLGAIDSSIVSCRDDK (UniProt Q8N8A2),-0.128,-0.105
AP2A2_O94973_491_TVFEALQAPACHENLVK (UniProt O94973),0.247,-0.157
ANP32A_P39687_123_SLDLFNCEVTNLNDYRENVFK (UniProt P39687),-0.235,-0.194
AP3M1_Q9Y2T2_209_SGSTVFAEIQGVIDACIK (UniProt Q9Y2T2),-0.0345,0.218
AP2A2_O94973_932_LCELLSAQF (UniProt O94973),-0.0269,0.118
ANXA2_P07355_262_EVKGDLENAFLNLVQCIQNK (UniProt P07355),-0.331,0.00394
ANKMY2_Q8IV38_74_HGADVNCHQHEHGYTALMFAALSGNK (UniProt Q8IV38),0.0837,0.376
ANO6_Q4KMQ2_426_CTHVVINEITQEEER (UniProt Q4KMQ2),0.253,-0.0102
ANKRD17_O75179_564_AGADIELGCSTPLMEAAQEGHLELVK (UniProt O75179),0.236,0.0516
ANKHD1_Q8IWZ3_873_DTVSLHQQCSHR (UniProt Q8IWZ3),0.0142,-0.128
APOBEC3B_Q9UH17_354_QGCPFQPWDGLEEHSQALSGR (UniProt Q9UH17),0.0241,0.188
ANKRD28_O15084_387_GIHGMFPLHLAALSGFSDCCR (UniProt O15084),0.00609,0.103
ANXA1_P04083_324_MYGISLCQAILDETK (UniProt P04083),0.0699,0.0579

# A different layout for some results above:
Target | probe-labelled cysteine peptide fold change (10 µM) | probe-labelled cysteine peptide fold change (50 µM)
AP2A2_O94973_491_TVFEALQAPACHENLVK (UniProt O94973) | 0.247 | -0.157
ANP32A_P39687_123_SLDLFNCEVTNLNDYRENVFK (UniProt P39687) | -0.235 | -0.194

# Next entries:

Target,probe-labelled cysteine peptide fold change (10 µM),probe-labelled cysteine peptide fold change (50 µM)
ANP32B_Q92688_27_ELVLDNCK (UniProt Q92688),-0.0549,-0.0554
ANKLE2_Q86XL3_176_TCSVPPSDTDTYR (UniProt Q86XL3),0.0474,-0.286
ANO6_Q4KMQ2_261_RQSEDPSCPNER (UniProt Q4KMQ2),-0.0531,-0.169
ANKRD17_O75179_1418_EVNQFPSDSECMR (UniProt O75179),0.0644,0.0601
AP2A2_O94973_353_YLALESMCTLASSEFSHEAVK (UniProt O94973),0.0765,0.0277
AP3D1_O14617_208_EKLEDPDPGVQSAAVNVICELAR (UniProt O14617),-0.0536,0.0308
AOAH_P28039_329_NHCNHR (UniProt P28039),0.0863,0.113
ANLN_Q9NQW6_437_ELACLR (UniProt Q9NQW6),-0.177,-0.148
ANKRD28_O15084_472_GCTPLHYAATSDTDGK (UniProt O15084),0.0453,0.00836
ANKFY1_Q9P2R3_712+716_HGCDATCWGPGPGGCLQTLLHR (UniProt Q9P2R3),-0.131,-0.202
AP4B1_Q9Y6B7_298_ELCFVALCHVR (UniProt Q9Y6B7),0.0465,0.0303
ANPEP_P15144_834_AALACSK (UniProt P15144),0.0828,0.356
AP1G2_O75843_125_NDLSQGIQPVQGLALCTLSTMGSAEMCR (UniProt O75843),0.0046,-0.109
ANLN_Q9NQW6_1037_INLANCTSR (UniProt Q9NQW6),0.0908,0.0492
ANKRD54_Q6NXT1_265_LDDLCTR (UniProt Q6NXT1),-0.0938,-0.167
AP5M1_Q9H0R1_444_ILDYTLTGCYADQHSVQVFASGKPK (UniProt Q9H0R1),0.0751,0.0182
AOC1_P19801_417_ALCLFEMPTGVPLRR (UniProt P19801),-0.159,0.0773
APLP2_Q06481_343_FIYGGCGGNR (UniProt Q06481),-0.0583,-0.102
AP3M1_Q9Y2T2_236_LLDDVSFHPCIR (UniProt Q9Y2T2),0.0679,0.0303
AOAH_P28039_329_RNHCNHR (UniProt P28039),-0.034,0.167
